Drawing on article PMC2244710, “The Gammaherpesvirus m2 Protein Manipulates the Fyn/Vav Pathway through a Multidocking Mechanism of Assembly” (PLoS ONE, 2008), this text covers binding for 2 substances.

These are yes or no findings as the source states them, for the method shown. Binding seen in cells or lysates may run through a third protein. A result given as binding can be weak or reduced; the word gives no strength.

This test has as its target T1, wild type mouse Vav1, COS1 (mouse) (UniProt P27870).
T1 sequence: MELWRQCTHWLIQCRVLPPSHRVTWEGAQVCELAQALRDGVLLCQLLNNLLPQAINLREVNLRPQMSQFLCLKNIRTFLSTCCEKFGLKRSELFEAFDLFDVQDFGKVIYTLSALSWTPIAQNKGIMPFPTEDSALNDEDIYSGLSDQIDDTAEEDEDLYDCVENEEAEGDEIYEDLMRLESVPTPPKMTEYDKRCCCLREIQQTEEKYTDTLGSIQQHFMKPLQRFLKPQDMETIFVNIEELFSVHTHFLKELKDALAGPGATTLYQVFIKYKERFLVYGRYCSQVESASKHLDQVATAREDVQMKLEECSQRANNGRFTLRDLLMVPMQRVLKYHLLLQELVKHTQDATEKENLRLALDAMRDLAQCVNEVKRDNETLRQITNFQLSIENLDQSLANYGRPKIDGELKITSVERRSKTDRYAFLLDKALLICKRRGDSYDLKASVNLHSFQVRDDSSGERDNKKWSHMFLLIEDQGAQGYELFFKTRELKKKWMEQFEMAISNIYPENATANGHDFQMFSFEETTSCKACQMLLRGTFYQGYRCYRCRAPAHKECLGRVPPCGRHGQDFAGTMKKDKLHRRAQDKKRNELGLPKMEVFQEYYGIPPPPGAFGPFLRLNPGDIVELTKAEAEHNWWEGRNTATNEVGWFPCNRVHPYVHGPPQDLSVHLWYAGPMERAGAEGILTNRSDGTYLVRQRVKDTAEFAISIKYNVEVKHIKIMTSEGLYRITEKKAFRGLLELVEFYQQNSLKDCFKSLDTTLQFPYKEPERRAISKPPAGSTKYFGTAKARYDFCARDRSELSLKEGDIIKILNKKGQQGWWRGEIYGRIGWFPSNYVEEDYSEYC
The test can be described thus: co-IP; anti-Vav1 immunoprecipitation from clarified lysates of COS1 cells co-transfected with Vav1 (or mutants), Fyn and M2 (or mutants); 10 mM Tris-HCl pH 7.4, 100 mM NaCl, 0.5% NP-40, 2 h at 4°C; western blot. On the technique in general: In western blotting, separated proteins are transferred to a membrane and probed.

On to “M2 Y120D mutant (Myc-tagged), COS1 (murine gammaherpesvirus 68 (MHV-68))”, for which the binding result is on record as “binds”.

Take “M2 Y129D mutant (Myc-tagged), COS1 (murine gammaherpesvirus 68 (MHV-68))”: the binding entry is listed as “binds”.
